Entries after “also recorded” stand apart in the source; their conditions may differ. Some entries repeat one wording, which the source may state once for all of them.
B1: full-length SLC16A1: monocarboxylate transporter 1, endogenous full-length prey (protein, UniProt P53985 1-500, looked up)
chain: MPPAVGGPVGYTPPDGGWGWAVVIGAFISIGFSYAFPKSITVFFKEIEGIFHATTSEVSWISSIMLAVMYGGGPISSILVNKYGSRIVMIVGGCLSGCGLIAASFCNTVQQLYVCIGVIGGLGLAFNLNPALTMIGKYFYKRRPLANGLAMAGSPVFLCTLAPLNQVFFGIFGWRGSFLILGGLLLNCCVAGALMRPIGPKPTKAGKDKSKASLEKAGKSGVKKDLHDANTDLIGRHPKQEKRSVFQTINQFLDLTLFTHRGFLLYLSGNVIMFFGLFAPLVFLSSYGKSQHYSSEKSAFLLSILAFVDMVARPSMGLVANTKPIRPRIQYFFAASVVANGVCHMLAPLSTTYVGFCVYAGFFGFAFGWLSSVLFETLMDLVGPQRFSSAVGLVTIVECCPVLLGPPLLGRLNDMYGDYKYTYWACGVVLIISGIYLFIGMGINYRLLAKEQKANEQKKESKEEETSIDVAGKPNEVTKAAESPDQKDTDGGPKEEESPV
modifications: full-length
notes: monocarboxylate transporter 1, endogenous full-length prey
B2: full-length SLC1A5: neutral amino acid transporter B(0), endogenous full-length prey (protein, UniProt Q15758 1-541, looked up)
chain: MVADPPRDSKGLAAAEPTANGGLALASIEDQGAAAGGYCGSRDQVRRCLRANLLVLLTVVAVVAGVALGLGVSGAGGALALGPERLSAFVFPGELLLRLLRMIILPLVVCSLIGGAASLDPGALGRLGAWALLFFLVTTLLASALGVGLALALQPGAASAAINASVGAAGSAENAPSKEVLDSFLDLARNIFPSNLVSAAFRSYSTTYEERNITGTRVKVPVGQEVEGMNILGLVVFAIVFGVALRKLGPEGELLIRFFNSFNEATMVLVSWIMWYAPVGIMFLVAGKIVEMEDVGLLFARLGKYILCCLLGHAIHGLLVLPLIYFLFTRKNPYRFLWGIVTPLATAFGTSSSSATLPLMMKCVEENNGVAKHISRFILPIGATVNMDGAALFQCVAAVFIAQLSQQSLDFVKIITILVTATASSVGAAGIPAGGVLTLAIILEAVNLPVDHISLILAVDWLVDRSCTVLNVEGDALGAGLLQNYVDRTESRSTEPELIQVKSELPLDPLPVPTEEGNPLLKHYRGPAGDATVASEKESVM
modifications: full-length
notes: neutral amino acid transporter B(0), endogenous full-length prey
B3: CNBP: Cellular nucleic acid-binding protein (protein, UniProt P62633 2-177, looked up)
CCHC-type zinc finger nucleic …: SSNECFKCGRSGHWARECPTGGGRGRGMRSRGRGGFTSDRGFQFVSSSLPDICYRCGESGHLAKDCDLQEDACYNCGRGGHIAKDCKEPKREREQCCYNCGKPGHLARDCDHADEQKCYSCGEFGHIQKDCTKVKCYRCGETGHVAINCSKTSEVNCYRCGESGHLARECTIEATA

How the values were obtained:
[1] = tested on: isolated PDZ domains (SNX27, TAX1BP3, SCRIB PDZ_1, SCRIB PDZ_2, DLG1 PDZ_1, DLG1 PDZ_2); assay: nHU-MS with six isolated PDZ domain baits / summary of nHU-MS experiments; type: binding, human; details: Jurkat extract
[2] = tested on: full-length SNX27; assay: nHU-WB titration, full-length SNX27 bait, total Jurkat extracts; type: binding
Method: The empty His6-AviTag-MBP-TEV vector was used to produce biotinylated MBP for control experiments. Proteins were coexpressed with BirA biotin ligase (PET21a-BirA, Addgene, no. 20857) in Escherichia coli BL21(DE3) cells. At isopropyl-β-D-thiogalactopyranoside (IPTG) induction (1 mM IPTG at 18°C overnight), 50 μM biotin was added to the media. […] Lysates were frozen at -20°C before further purification steps. Lysates were sonicated and centrifuged for clarification. Expressed proteins were captured on in-house prepacked Ni-IDA (Protino Ni-IDA Resin, Macherey-Nagel, Duren, Germany) columns and were washed with at least 10 column volumes of cold wash buffer [50 mM tris (pH 7.5), 150 mM NaCl, and 2 mM β-mercaptoethanol] before elution with 250 mM imidazole. The Ni elution was collected directly on a preequilibrated amylose column (amylose high flow resin, New England Biolabs, Ipswich, MA). […] The concentration of proteins was determined by their ultraviolet absorption at 280 nm before aliquots were snap-frozen in liquid nitrogen and stored at -80°C. […] To saturate streptavidin resin with biotinylated proteins, 50 μl of streptavidin resin (Streptavidin Sepharose High Performance, Cytiva) was mixed with biotinylated MBP or MBP-PDZ at 40 to 50 μM concentration in 20× resin volume for 60 min. […] Last, resins were washed two times (10 resin volume, holdup buffer). […]

[3] = tested on: SNX27_PDZ; assay: nHU-WB at various incubation times, SNX27_PDZ bait, Jurkat lysates; type: binding; details: 15, 30, 120 and 240 min; 10 μM bait
[4] = tested on: HA-tagged SNX27; assay: Colocalization (immunostaining) in U2OS cells expressing HA-tagged SNX27 or SNX27_ΔPDZ; type: cell-based; details: SNX27 vs SNX27_ΔPDZ, confocal, single-cell PCC, n > 20
[5] = tested on: SNX27_PDZ; assay: AP-MS control pull-down on leftover resin, SNX27_PDZ bait, total SH-SY5Y extracts; type: binding, human; details: threshold 1 σ
Method: Leftover beads from nHU-MS experiments were washed three times immediately after the separation of the supernatant [10 resin volume in buffer containing 50 mM tris (pH 8.5), 150 mM NaCl, 1% Triton X-100, 10× cOmplete EDTA-free protease inhibitor cocktail, 2 mM EDTA, and 1 mM TCEP]. Then, the beads were washed two times [10 resin volume buffer containing 50 mM tris (pH 8.5), 150 mM NaCl, and 1 mM TCEP]. Last, captured protein was eluted from the resin in two steps, and the eluted fractions were pooled. For each elution, the beads were incubated for 30 min with three resin volume buffer containing 20 mM tris (pH 8.5), 100 mM NaCl, 500 μM TCEP, and 8 M urea. Between each step, the beads were separated by mild centrifugation, and the supernatant was removed by gentle pipetting.
The nHU samples were precipitated with trichloroacetic acid (TCA) 20% overnight at 4°C and centrifuged at 14,000 rpm for 10 min at 4°C. The protein pellets were washed twice with 1 ml of cold acetone and air-dried. […]
Samples were analyzed using an Ultimate 3000 nano-RSLC coupled in line via a nano-electrospray ionization source, with an LTQ-Orbitrap ELITE mass spectrometer (Thermo Fisher Scientific, San Jose, CA) or with the Orbitrap Exploris 480 mass spectrometer (Thermo Fisher Scientific, Bremen, Germany) equipped with a high field asymmetric ion mobility spectrometry (FAIMS) module. […]

| Molecule | interaction with isolated PDZ domains [1] | affinity ranking ([2]; full-length SNX27) | effect of prolonged incubation time on BI [3] | colocalization with SNX27 [4] | binding mechanism ([2]; titration) | BINDER_AP [5] |
| --- | --- | --- | --- | --- | --- | --- |
| B1 | detectable interaction with only SNX27_PDZ | stronger than with SLC1A5 | only a small change; also recorded: did not observe significant change | statistically significantly stronger colocalization with SNX27 than with SNX27_ΔPDZ | – | – |
| B2 | detectable interaction with only SNX27_PDZ | – | did not observe significant change | statistically significantly stronger colocalization with SNX27 than with SNX27_ΔPDZ | simple binding mechanism | – |
| B3 | – | – | – | – | – | DOES NOT BIND |
